The values below come from PubChem BioAssay AID206 (DTP/NCI, 2004).

The test concerns nude mice, HT29 intrarenal xenograft, tumor weight T/C. Description: NCI In Vivo Anticancer Drug Screen. Data for tumor model HT29;CX-1 Human Adenocarcinoma (MER+) (intrarenal inoculation) in NU/NU Swiss (nude) mice. Conditions: T/C endpoint: mean tumor weight change, higher T/C = larger tumour. Put shortly: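 Tumor-bearing mice received test compound or vehicle, and tumor size or survival was recorded. Values are the treated-group measurement divided by the vehicle-treated control measurement.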

Setting [1] is: dose: 25.0 mg/kg/injection, schedule: Q01DX010 (sc), vehicle: saline with Tween-80.
Setting [2] is: dose: 400.0 mg/kg/injection, schedule: Q01DX010 (sc), vehicle: Klucel (hydroxypropylcellulose) (HPC).
[3] abbreviates: dose: 2400.0 mg/kg/injection, schedule: Q04DX004 (sc), vehicle: Klucel (hydroxypropylcellulose) (HPC), evaluated on day 15.
Setting [4] is: dose: 200.0 mg/kg/injection, schedule: Q01DX010 (sc), vehicle: water.

The list does not hold the whole screen: it is rich in T/C values a quarter to a half above the control, in often repeated tests (any T/C) and in doses without a T/C. Other doses and runs of a compound stand elsewhere. T/C gives the treated animals as a percentage of the vehicle group. Schedules are NCI's codes, taken here to give the interval after Q, in days (D) or hours (H), and the number of doses after X. Some molecules as drawn cover several salts, stereoisomers or complexes of the source; a dose is that of the sample tested. Some T/C values are followed by the survivors on the day toxicity was checked, most often the fifth; where none is given, no animal had died by that day. Some doses have a count of surviving animals in place of a T/C: the source files T/C as zero there, which appears to mark a toxic dose or a test without result, not a measured value. Survivors were counted at the toxicity check, usually on the fifth day, unless a day is given; later deaths do not show. Some doses were run more than once; their values stand side by side, smallest first.

For `O=Cc1ccccc1`, the T/C (dose: 100.0 mg/kg/injection, schedule: Q04DX004 (sc), vehicle: Klucel (hydroxypropylcellulose) (HPC), evaluated on day 15) was 132 % of control. Besides, the survivor count (dose: 800.0 mg/kg/injection, schedule: Q04DX004 (sc), vehicle: Klucel (hydroxypropylcellulose) (HPC)) is recorded as 3 of 6 on day 15.

In the case of `Cc1cc(N(CC(C)Br)CC(C)Br)ccc1N=Nc1ccccc1C(=O)O` (stereo unspecified), the survivor count under setting [1] is on record as 0 of 3 on day 11.

`C[C@@]12C(=O)OC(=O)[C@]1(C)[C@H]1CC[C@@H]2O1`: for the setting “dose: 10.0 mg/kg/injection, schedule: Q04DX004 (sc), vehicle: Klucel (hydroxypropylcellulose) (HPC)”, the survivor count is given as 0 of 6 on day 15.

`COC12C(COC(N)=O)C3=C(C(=O)C(C)=C(N)C3=O)N1CC1C2N1C` (stereo unspecified): the survivor count was 0 of 3 on day 11 and 1 of 3 on day 11 (dose: 16.0 mg/kg/injection, schedule: Q01DX010 (sc), vehicle: saline); 0 of 3 on day 11 (dose: 32.0 mg/kg/injection, schedule: Q01DX010 (sc), vehicle: saline).

As for `O=c1[nH]c(=O)n([C@H]2CCCO2)cc1F`, the survivor count runs as follows: under setting [2], 0 of 3 on day 20; (dose: 800.0 mg/kg/injection, schedule: Q01DX010 (sc), vehicle: Klucel (hydroxypropylcellulose) (HPC)) 0 of 3 on day 20.

`CC(=O)CC(C)=O.CC(=O)CC(C)=O.O=N[O-].O=N[O-].[Co]`: the survivor count (dose: 600.0 mg/kg/injection, schedule: Q04DX004 (sc), vehicle: saline with Tween-80) was 1 of 6 on day 15.

Take `O=C(/C=C(\Cl)C(=O)NO)NO`: under “dose: 400.0 mg/kg/injection, schedule: Q04DX004 (sc), vehicle: saline”, the survivor count is reported as 0 of 6 on day 15.

Take `CC1(C)N=C(N)N=C(N)N1c1ccc(CCCCc2ccc(S(=O)(=O)F)cc2Cl)c(Cl)c1`: the survivor count (dose: 50.0 mg/kg/injection, schedule: Q01DX010 (sc), vehicle: saline) is given as 0 of 3 on day 11 and the survivor count (dose: 100.0 mg/kg/injection, schedule: Q01DX010 (sc), vehicle: saline) is recorded as 0 of 3 on day 11.

On to `CCCCc1ccc(-n2c(C)c(COC(=O)NC)c(COC(=O)NC)c2C)cc1`, for which the survivor count is given as 1 of 3 on day 20 (dose: 200.0 mg/kg/injection, schedule: Q01DX010 (sc), vehicle: Klucel (hydroxypropylcellulose) (HPC)) and 0 of 3 on day 20 under setting [2].

`CC(=O)OC1=NC(C)c2c1cc(OC(C)=O)[nH]c2=O` (stereo unspecified): the T/C (dose: 450.0 mg/kg/injection, schedule: Q04DX004 (sc), vehicle: Klucel (hydroxypropylcellulose) (HPC), evaluated on day 15) is 135 % of control. Besides, the survivor count (dose: 1800.0 mg/kg/injection, schedule: Q04DX004 (sc), vehicle: Klucel (hydroxypropylcellulose) (HPC)) is listed as 1 of 6 on day 15.

With `Clc1ccc(C2SC=Cc3ccccc32)cc1` (stereo unspecified), the T/C is, setting by setting: (dose: 1200.0 mg/kg/injection, schedule: Q04DX004 (sc), vehicle: Klucel (hydroxypropylcellulose) (HPC), evaluated on day 15) 129 % of control [5 of 6 alive on day 15]; under setting [3], 148 % of control [5 of 6 alive on day 15].

For `CCCCCCCCCCCCCCCC(=O)Nc1ccn(C2OC(CO)C(O)C2O)c(=O)n1` (stereo unspecified), the survivor count reads like this: (dose: 450.0 mg/kg/injection, schedule: Q04DX004 (sc), vehicle: water) 3 of 6 on day 15; (dose: 900.0 mg/kg/injection, schedule: Q04DX004 (sc), vehicle: water) 1 of 6 on day 15.

In the case of `CCCCCCCCNc1cc2c3c(c1)CCCN3CCC2`, the survivor count (dose: 24.0 mg/kg/injection, schedule: Q04DX004 (sc), vehicle: Klucel (hydroxypropylcellulose) (HPC)) is 0 of 6 on day 15.

Take `C=CC(=O)N1CN(C(=O)C=C)CN(C(=O)C=C)C1`: the survivor count runs as follows: under setting [1], 1 of 3 on day 11; (dose: 50.0 mg/kg/injection, schedule: Q01DX010 (sc), vehicle: saline with Tween-80) 0 of 3 on day 11.

For `O=C(O)C1CSCN1` (stereo unspecified), the survivor count reads like this: under setting [4], 0 of 3 on day 11; (dose: 400.0 mg/kg/injection, schedule: Q01DX010 (sc), vehicle: water) 0 of 3 on day 11.

Consider `O=C1c2c(O)ccc(O)c2C(=O)c2c(NCCNCCO)ccc(NCCNCCO)c21`, for which, for the setting “dose: 1.0 mg/kg/injection, schedule: Q01DX010 (sc), vehicle: acid diluted with saline, evaluated on day 11”, the T/C was 128 % of control. Further, the survivor count by setting is: (dose: 4.0 mg/kg/injection, schedule: Q01DX010 (sc), vehicle: acid diluted with saline) 0 of 3 on day 11 and 1 of 3 on day 11; (dose: 20.0 mg/kg/injection, schedule: Q04DX004 (sc), vehicle: water) 0 of 6 on day 15.

On to `C[N+](C)(C)c1ncnc2c1ncn2C1CCCO1` (stereo unspecified), for which the T/C (dose: 3.12 mg/kg/injection, schedule: Q01DX010 (sc), vehicle: saline, evaluated on day 11) is 144 % of control.

In the case of `CCCN1COC(OCC)C(C)(C)C1` (stereo unspecified), for the setting “dose: 1200.0 mg/kg/injection, schedule: Q04DX004 (sc), vehicle: saline with Tween-80”, the survivor count was 1 of 6 on day 15.

`NC(=O)c1ncn2c(=O)n(CCCl)nnc12`: the T/C (dose: 12.5 mg/kg/injection, schedule: Q04DX004 (sc), vehicle: suspension in saline, evaluated on day 15) is 138 % of control. Moreover, under “dose: 100.0 mg/kg/injection, schedule: Q04DX004 (sc), vehicle: suspension in saline”, the survivor count was 2 of 6 on day 15.

As to `NC(CCl)=NCC12CC3CC(CC(C3)C1)C2`, the survivor count runs as follows: (dose: 150.0 mg/kg/injection, schedule: Q04DX004 (sc), vehicle: Klucel (hydroxypropylcellulose) (HPC)) 2 of 6 on day 15; (dose: 300.0 mg/kg/injection, schedule: Q04DX004 (sc), vehicle: Klucel (hydroxypropylcellulose) (HPC)) 0 of 6 on day 15.

For `C=C1C(=O)OC2CC(C)C3C4OC4C(O)C3(C)C(O)C12` (stereo unspecified), under “dose: 400.0 mg/kg/injection, schedule: Q04DX004 (sc), vehicle: saline with Tween-80”, the survivor count is reported as 1 of 6 on day 15.

With `ClCCCN1CCN(CCCCl)CC1`, the survivor count is 3 of 6 on day 15 (dose: 250.0 mg/kg/injection, schedule: Q04DX004 (sc), vehicle: distilled water + alcohol) and 0 of 6 on day 15 (dose: 500.0 mg/kg/injection, schedule: Q04DX004 (sc), vehicle: distilled water + alcohol).

Consider `Cc1nn(CCO)c(C)c1N=[N+]([O-])c1c(C)nn(CCO)c1C`, for which the T/C under setting [3] is 133 % of control [4 of 6 alive on day 15].

Consider `[Cl][Mn][Cl]`, for which, where the note is “dose: 37.5 mg/kg/injection, schedule: Q04DX004 (sc), vehicle: saline, evaluated on day 15”, the T/C is 149 % of control.

Consider `CC(=O)Nc1ccc(S(=O)(=O)CO)cc1`, for which the survivor count is, setting by setting: (dose: 900.0 mg/kg/injection, schedule: Q04DX004 (sc), vehicle: saline with Tween-80) 0 of 6 on day 15; (dose: 1800.0 mg/kg/injection, schedule: Q04DX004 (sc), vehicle: saline with Tween-80) 0 of 6 on day 15.

`O=c1[nH]c(=O)n(C2CC(O)C(CO)O2)cc1F` (stereo unspecified): the survivor count is 1 of 2 on day 11 (dose: 100.0 mg/kg/injection, schedule: Q01DX010 (sc), vehicle: water) and 0 of 3 on day 11 under setting [4].

As to `F[B-](F)(F)F`, under “dose: 1800.0 mg/kg/injection, schedule: Q04DX004 (sc), vehicle: gum acacia”, the survivor count is 1 of 6 on day 15.

Take `CC(=O)Oc1ccccc1O`: the survivor count (dose: 600.0 mg/kg/injection, schedule: Q04DX004 (sc), vehicle: saline + Tween-80 + alcohol) is on record as 3 of 6 on day 15.

Consider `Cn1c(=O)[nH]c2nncnc2c1=O`, for which the survivor count (dose: 120.0 mg/kg/injection, schedule: Q04DX004 (sc), vehicle: water) is on record as 0 of 6 on day 15.

In the case of `CCc1nc(N)nc(N)c1-c1ccc(Cl)c([N+](=O)[O-])c1`, the T/C (dose: 37.5 mg/kg/injection, schedule: Q04DX004 (sc), vehicle: saline with Tween-80, evaluated on day 15) is 134 % of control. In addition, the survivor count by setting is: (dose: 75.0 mg/kg/injection, schedule: Q04DX004 (sc), vehicle: saline with Tween-80) 1 of 6 on day 15; (dose: 150.0 mg/kg/injection, schedule: Q04DX004 (sc), vehicle: saline with Tween-80) 1 of 6 on day 15; (dose: 300.0 mg/kg/injection, schedule: Q04DX004 (sc), vehicle: saline with Tween-80) 0 of 6 on day 15.

With `O=c1[nH]c(=O)n(C2CC(O)C(CO)O2)cc1Br` (stereo unspecified), where the note is “dose: 4800.0 mg/kg/injection, schedule: Q04DX004 (sc), vehicle: Klucel (hydroxypropylcellulose) (HPC)”, the survivor count was 1 of 6 on day 15.
